According to the NIST ThermoML archive (doi:10.1021/je050116g):

Assay: relative permittivity at various frequencies (dimensionless); xn = mol fraction of the nth substance listed
Details: 298.15 K, 101.33 kPa, Liquid, Frequency=0.03 MHz, Parallel plate capacitor

CCCCCCCCCO [nonan-1-ol] + CCCCCCCCCCCC
Details | relative permittivity
x1 = 0.000477 | 2.00782
x1 = 0.001008 | 2.00852
x1 = 0.001576 | 2.00927
x1 = 0.002254 | 2.01015
x1 = 0.002998 | 2.01112
x1 = 0.003815 | 2.0122
x1 = 0.004639 | 2.01329
x1 = 0.005985 | 2.01506
x1 = 0.007553 | 2.01703
x1 = 0.009513 | 2.01939
x1 = 0.01235 | 2.02255
x1 = 0.01662 | 2.02687
x1 = 0.02124 | 2.03118
x1 = 0.0241 | 2.0337
x1 = 0.02897 | 2.03784
x1 = 0.03592 | 2.04356
x1 = 0.04265 | 2.04902
x1 = 0.04937 | 2.05445
x1 = 0.05678 | 2.06047
x1 = 0.06467 | 2.06696
x1 = 0.07288 | 2.07381
x1 = 0.08103 | 2.08075
x1 = 0.09058 | 2.0891
x1 = 0.1027 | 2.09999
